Experimental data: the supplement of paper PMC10849652
Some of the results follow.

Chains of the proteins cited; added tags and fusions are not shown. Lines headed by an entry give the natural chain unless they say otherwise; changes in a name come on top.
UniProt Q8IZV5: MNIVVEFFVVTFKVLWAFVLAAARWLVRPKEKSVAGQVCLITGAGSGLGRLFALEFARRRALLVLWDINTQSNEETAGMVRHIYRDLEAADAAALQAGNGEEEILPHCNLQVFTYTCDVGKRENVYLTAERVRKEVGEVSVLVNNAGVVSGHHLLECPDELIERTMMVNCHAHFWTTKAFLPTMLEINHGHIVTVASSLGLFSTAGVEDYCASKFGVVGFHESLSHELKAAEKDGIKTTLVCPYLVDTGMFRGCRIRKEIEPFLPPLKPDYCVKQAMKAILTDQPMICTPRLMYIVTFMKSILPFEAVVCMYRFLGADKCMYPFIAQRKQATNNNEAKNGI
UniProt P46063: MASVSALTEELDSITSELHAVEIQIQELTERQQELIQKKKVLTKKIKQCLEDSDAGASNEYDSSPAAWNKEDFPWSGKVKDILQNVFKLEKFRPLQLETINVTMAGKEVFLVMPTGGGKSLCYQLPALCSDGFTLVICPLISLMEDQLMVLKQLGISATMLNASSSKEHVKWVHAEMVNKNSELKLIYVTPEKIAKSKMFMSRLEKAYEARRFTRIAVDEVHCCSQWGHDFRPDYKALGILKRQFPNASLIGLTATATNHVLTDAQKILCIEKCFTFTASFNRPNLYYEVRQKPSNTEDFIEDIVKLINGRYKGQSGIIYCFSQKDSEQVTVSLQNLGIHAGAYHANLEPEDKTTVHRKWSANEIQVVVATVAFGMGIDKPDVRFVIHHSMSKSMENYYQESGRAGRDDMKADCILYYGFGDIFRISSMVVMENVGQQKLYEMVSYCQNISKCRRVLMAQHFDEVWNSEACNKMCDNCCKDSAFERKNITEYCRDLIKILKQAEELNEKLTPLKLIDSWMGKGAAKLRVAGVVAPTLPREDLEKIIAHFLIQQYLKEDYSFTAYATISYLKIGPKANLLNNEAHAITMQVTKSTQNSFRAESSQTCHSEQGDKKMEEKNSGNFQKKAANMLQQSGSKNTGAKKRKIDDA
UniProt P61586, whole entry, looked up: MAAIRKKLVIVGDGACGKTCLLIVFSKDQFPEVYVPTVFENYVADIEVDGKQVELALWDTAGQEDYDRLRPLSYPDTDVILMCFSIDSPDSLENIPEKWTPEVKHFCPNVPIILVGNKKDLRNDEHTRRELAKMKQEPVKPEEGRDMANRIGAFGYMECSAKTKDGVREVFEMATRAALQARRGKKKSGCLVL
UniProt O00584, whole entry, looked up: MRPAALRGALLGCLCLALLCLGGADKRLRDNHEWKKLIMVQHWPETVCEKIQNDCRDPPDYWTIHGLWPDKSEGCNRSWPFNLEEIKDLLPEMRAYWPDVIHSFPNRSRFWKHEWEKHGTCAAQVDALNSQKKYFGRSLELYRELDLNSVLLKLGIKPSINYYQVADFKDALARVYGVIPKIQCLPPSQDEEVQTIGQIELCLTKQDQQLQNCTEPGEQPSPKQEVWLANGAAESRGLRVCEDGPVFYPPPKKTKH
UniProt Q6NUQ1: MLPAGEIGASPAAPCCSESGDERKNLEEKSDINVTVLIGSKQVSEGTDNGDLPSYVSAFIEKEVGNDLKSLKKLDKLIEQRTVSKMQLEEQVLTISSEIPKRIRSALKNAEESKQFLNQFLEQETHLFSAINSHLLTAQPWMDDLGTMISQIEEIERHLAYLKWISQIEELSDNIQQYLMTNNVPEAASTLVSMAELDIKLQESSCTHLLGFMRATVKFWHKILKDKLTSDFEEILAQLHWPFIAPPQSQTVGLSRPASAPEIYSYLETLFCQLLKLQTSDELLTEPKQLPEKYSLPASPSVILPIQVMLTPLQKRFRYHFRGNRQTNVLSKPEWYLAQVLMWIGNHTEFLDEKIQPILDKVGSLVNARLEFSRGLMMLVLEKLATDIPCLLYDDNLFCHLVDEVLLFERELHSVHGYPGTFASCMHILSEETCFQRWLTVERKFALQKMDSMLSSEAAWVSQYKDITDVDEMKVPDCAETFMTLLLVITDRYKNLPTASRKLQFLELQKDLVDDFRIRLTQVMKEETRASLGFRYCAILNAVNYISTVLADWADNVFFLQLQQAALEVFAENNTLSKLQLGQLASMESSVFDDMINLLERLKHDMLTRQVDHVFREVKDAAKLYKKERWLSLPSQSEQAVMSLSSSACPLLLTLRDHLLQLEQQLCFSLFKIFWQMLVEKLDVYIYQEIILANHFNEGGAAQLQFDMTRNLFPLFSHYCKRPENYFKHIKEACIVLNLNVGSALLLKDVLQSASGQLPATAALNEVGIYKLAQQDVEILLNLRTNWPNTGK
UniProt Q8IYW5, whole entry, looked up: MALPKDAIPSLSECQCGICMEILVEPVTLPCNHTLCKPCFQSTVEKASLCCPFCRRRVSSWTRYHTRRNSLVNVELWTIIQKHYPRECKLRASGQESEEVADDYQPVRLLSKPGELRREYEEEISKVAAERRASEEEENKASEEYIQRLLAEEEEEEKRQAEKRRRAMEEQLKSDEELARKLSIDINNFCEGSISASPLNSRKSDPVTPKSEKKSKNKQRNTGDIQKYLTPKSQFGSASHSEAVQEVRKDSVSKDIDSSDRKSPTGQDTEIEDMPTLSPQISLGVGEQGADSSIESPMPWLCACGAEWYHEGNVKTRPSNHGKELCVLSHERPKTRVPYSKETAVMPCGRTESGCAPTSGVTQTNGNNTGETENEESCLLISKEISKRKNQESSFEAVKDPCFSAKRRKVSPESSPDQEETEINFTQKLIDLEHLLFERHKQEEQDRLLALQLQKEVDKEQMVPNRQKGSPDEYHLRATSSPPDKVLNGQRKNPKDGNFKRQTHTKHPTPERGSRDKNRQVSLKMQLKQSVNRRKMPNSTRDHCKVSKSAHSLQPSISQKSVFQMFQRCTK
UniProt Q96D15: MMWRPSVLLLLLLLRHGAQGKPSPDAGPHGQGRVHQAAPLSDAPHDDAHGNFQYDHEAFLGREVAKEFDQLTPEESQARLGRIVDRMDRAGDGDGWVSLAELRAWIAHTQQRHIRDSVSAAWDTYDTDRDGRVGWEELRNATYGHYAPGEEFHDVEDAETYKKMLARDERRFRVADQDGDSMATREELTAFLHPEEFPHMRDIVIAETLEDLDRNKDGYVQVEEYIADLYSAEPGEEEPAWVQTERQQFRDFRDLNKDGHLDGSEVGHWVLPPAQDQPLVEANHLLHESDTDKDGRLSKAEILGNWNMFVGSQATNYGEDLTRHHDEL
UniProt Q9H1K0: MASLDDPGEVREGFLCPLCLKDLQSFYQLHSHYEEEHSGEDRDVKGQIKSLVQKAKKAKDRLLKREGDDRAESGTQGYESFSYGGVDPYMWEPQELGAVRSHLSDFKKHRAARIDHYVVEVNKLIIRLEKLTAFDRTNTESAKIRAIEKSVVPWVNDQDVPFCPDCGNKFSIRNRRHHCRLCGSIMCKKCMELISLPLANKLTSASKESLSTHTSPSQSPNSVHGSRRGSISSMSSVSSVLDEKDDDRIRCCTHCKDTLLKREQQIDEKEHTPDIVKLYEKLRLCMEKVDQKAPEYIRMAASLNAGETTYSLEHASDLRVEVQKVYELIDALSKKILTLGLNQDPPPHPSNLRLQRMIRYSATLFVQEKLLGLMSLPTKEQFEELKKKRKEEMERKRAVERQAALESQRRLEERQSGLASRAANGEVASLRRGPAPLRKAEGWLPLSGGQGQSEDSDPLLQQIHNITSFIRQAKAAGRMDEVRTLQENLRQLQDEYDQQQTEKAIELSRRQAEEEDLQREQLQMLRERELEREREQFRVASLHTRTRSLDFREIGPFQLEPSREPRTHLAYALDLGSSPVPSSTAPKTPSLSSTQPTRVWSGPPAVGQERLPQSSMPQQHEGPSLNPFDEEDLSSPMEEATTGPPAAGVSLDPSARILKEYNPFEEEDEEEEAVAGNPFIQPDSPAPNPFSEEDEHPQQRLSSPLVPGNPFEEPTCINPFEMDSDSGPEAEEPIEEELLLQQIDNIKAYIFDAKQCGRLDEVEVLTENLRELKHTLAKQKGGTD
UniProt O43665: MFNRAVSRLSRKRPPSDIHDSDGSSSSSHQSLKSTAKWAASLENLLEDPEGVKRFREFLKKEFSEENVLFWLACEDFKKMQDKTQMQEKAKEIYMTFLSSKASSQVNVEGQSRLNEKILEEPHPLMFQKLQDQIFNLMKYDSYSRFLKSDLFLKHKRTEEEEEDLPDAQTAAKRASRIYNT
UniProt Q9H6H4: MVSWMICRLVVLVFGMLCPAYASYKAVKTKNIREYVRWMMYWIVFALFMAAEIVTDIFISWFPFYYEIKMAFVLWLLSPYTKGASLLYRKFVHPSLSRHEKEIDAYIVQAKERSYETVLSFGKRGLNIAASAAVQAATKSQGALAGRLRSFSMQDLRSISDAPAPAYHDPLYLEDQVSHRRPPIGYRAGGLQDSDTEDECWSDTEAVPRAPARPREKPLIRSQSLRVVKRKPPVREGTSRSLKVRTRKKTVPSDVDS
UniProt O14730: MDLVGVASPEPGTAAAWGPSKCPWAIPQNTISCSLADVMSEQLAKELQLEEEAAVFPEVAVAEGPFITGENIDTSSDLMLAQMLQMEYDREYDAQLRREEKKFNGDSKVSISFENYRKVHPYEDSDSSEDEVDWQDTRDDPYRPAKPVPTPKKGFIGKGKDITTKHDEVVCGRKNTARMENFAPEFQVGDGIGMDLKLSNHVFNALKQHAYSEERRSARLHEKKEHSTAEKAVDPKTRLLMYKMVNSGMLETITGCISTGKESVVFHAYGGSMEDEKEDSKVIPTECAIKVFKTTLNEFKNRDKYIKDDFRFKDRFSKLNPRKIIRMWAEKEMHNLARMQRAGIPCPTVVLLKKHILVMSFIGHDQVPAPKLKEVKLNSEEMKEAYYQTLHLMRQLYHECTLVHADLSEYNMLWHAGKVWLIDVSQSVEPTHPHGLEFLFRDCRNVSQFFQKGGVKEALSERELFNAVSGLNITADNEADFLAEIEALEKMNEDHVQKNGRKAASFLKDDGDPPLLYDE
UniProt Q5TA31: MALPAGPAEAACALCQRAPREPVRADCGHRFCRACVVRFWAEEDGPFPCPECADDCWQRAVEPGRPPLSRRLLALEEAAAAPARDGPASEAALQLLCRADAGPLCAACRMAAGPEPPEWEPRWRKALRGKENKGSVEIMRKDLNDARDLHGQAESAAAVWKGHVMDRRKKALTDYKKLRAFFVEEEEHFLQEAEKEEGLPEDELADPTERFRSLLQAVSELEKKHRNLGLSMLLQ
UniProt Q6NUM9: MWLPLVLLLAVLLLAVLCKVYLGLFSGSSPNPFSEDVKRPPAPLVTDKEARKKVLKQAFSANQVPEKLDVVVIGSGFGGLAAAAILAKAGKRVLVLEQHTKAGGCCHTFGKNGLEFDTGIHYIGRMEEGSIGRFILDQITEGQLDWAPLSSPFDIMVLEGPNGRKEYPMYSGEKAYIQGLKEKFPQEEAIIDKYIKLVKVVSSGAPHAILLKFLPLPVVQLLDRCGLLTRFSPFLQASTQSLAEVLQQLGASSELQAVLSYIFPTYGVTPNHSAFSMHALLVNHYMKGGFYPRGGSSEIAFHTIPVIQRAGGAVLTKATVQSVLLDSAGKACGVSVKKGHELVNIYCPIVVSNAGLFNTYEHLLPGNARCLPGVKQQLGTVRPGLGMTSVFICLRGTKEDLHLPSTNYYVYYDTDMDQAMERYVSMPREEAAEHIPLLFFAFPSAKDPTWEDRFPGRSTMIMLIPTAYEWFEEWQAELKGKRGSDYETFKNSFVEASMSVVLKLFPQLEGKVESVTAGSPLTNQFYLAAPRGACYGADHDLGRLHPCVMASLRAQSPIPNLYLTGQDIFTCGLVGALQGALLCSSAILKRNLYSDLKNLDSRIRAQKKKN
UniProt Q96EN9: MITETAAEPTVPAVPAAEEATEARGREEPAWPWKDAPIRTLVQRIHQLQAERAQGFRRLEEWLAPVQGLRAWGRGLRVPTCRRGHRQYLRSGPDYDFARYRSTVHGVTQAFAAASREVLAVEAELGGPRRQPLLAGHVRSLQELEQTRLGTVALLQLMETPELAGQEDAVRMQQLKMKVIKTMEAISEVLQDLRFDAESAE
UniProt Q9H6W3: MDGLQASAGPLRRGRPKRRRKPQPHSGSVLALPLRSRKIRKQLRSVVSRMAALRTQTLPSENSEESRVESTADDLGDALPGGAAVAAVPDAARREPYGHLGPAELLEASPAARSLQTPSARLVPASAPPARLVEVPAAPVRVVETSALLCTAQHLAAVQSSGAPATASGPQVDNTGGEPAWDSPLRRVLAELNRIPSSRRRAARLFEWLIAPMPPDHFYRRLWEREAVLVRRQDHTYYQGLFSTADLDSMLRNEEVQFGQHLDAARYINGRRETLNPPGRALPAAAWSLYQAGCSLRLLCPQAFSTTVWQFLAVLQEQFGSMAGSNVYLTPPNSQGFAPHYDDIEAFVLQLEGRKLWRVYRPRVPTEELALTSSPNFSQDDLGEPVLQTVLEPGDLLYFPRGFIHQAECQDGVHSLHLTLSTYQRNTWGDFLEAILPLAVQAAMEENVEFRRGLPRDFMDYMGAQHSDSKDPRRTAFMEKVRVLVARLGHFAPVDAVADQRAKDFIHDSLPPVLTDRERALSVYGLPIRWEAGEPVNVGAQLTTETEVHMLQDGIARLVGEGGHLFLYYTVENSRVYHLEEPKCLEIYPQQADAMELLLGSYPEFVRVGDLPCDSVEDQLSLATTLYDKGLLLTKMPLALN

Experiments:
Test in all cases: log2 fold change, soluble protein after heating vs DMSO (PISA); higher = thermal stabilisation; K562 cells, 10 uM, 30 min; active = over 0.2 and 3.5 SD of the protein, either way, in both replicates (recomputed)
saracatinib = compound: CN1CCN(CCOc2cc(OC3CCOCC3)c3c(Nc4c(Cl)ccc5c4OCO5)ncnc3c2)CC1 [saracatinib]
Summary of the method: (§1)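 Soluble protein was quantified by TMTpro 16plex LC-MS/MS after channel sums were equalised. It was obtained as the supernatant after 21,000xg for 90 min from pooled aliquots of K562 cells (2×10^6 cells/mL, 10 μM compound, 30 min) heated for 3 min across 48°C-58°C and extracted in PBS with 0.5% NP-40 at 4°C. Thermal stability values are relative to control samples and come from duplicates. They are given as log2 fold changes.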

sotrastaurin = compound: CN1CCN(c2nc(C3=C(c4c[nH]c5ccccc45)C(=O)NC3=O)c3ccccc3n2)CC1 [sotrastaurin]
Summary of the method: as §1

Tubastatin A = compound: CN1CCc2c(c3ccccc3n2Cc2ccc(C(=O)NO)cc2)C1 [Tubastatin A]
Summary of the method: as §1

[1] = compound: CNC(=O)C1=CC=CC=C1NC2=NC(=NC=C2Cl)NC3=C(C=C(C=C3)N4CCOCC4)OC
Summary of the method: as §1

defactinib = compound: CNC(=O)c1ccc(Nc2ncc(C(F)(F)F)c(NCc3nccnc3N(C)S(C)(=O)=O)n2)cc1 [defactinib]
Summary of the method: as §1

rucaparib = compound: CNCc1ccc(-c2[nH]c3cc(F)cc4c3c2CCNC4=O)cc1 [rucaparib]
Summary of the method: as §1

[2] = compound: CNc1nc(-c2ccc3c(N)n[nH]c3c2)cc(N2C[C@@H](C(=O)NC3CCCCC3)CC[C@H]2C)n1
Summary of the method: as §1

encorafenib = compound: COC(=O)N[C@@H](C)CNc1nccc(-c2cn(C(C)C)nc2-c2cc(Cl)cc(NS(C)(=O)=O)c2F)n1 [encorafenib]
Summary of the method: as §1

[3] = compound: COC(=O)[C@H](CCSC)NC(=O)C1=C(C=C(C=C1)NC[C@H](CS)N)C2=CC=CC=C2
Summary of the method: as §1

[4] = compound: COC1=CC=C(C=C1)CN2C=CC3=C2C=C(C=C3)C(=O)NO
Summary of the method: as §1

filanesib = compound: CON(C)C(=O)N1N=C(c2cc(F)ccc2F)S[C@@]1(CCCN)c1ccccc1 [filanesib]
Summary of the method: as §1

zotarolimus = compound: CO[C@H]1C[C@@H]2CC[C@@H](C)[C@@](O)(O2)C(=O)C(=O)N2CCCC[C@H]2C(=O)O[C@H]([C@H](C)C[C@@H]2CC[C@H](n3cnnn3)[C@H](OC)C2)CC(=O)[C@H](C)/C=C(\C)[C@@H](O)[C@@H](OC)C(=O)[C@H](C)C[C@H](C)/C=C/C=C/C=C/1C [zotarolimus]
Summary of the method: as §1

idasanutlin = compound: COc1cc(C(=O)O)ccc1NC(=O)[C@@H]1N[C@@H](CC(C)(C)C)[C@](C#N)(c2ccc(Cl)cc2F)[C@H]1c1cccc(Cl)c1F [idasanutlin]
Summary of the method: as §1

alisertib = compound: COc1cc(Nc2ncc3c(n2)-c2ccc(Cl)cc2C(c2c(F)cccc2OC)=NC3)ccc1C(=O)O [alisertib]
Summary of the method: as §1

[5] = compound: COc1cc2nc(-c3cc(F)ccc3O)nc(N[C@@H]3CNC[C@H]3C(C)(C)O)c2cc1OC
Summary of the method: as §1

gefitinib = compound: COc1cc2ncnc(Nc3ccc(F)c(Cl)c3)c2cc1OCCCN1CCOCC1 [gefitinib]
Summary of the method: as §1

[6] = compound: COc1cccc2cc(-c3nc([C@H]4CC[C@H](C(=O)O)CC4)n4ncnc(N)c34)[nH]c12
Summary of the method: as §1

lapatinib = compound: CS(=O)(=O)CCNCc1ccc(-c2ccc3ncnc(Nc4ccc(OCc5cccc(F)c5)c(Cl)c4)c3c2)o1 [lapatinib]
Summary of the method: as §1

pictilisib = compound: CS(=O)(=O)N1CCN(Cc2cc3nc(-c4cccc5[nH]ncc45)nc(N4CCOCC4)c3s2)CC1 [pictilisib]
Summary of the method: as §1

alvocidib = compound: CN1CC[C@H](c2c(O)cc(O)c3c(=O)cc(-c4ccccc4Cl)oc23)[C@H](O)C1 [alvocidib]
Summary of the method: as §1

Measured: log2 fold change

RDH10 (UniProt Q8IZV5)
inactive: saracatinib 0.005 | sotrastaurin 0.016 | Tubastatin A 0.04 | [1] 0.068 | defactinib -0.002 | rucaparib -0.034 | [2] 0.072 | encorafenib -0.011 | [3] -0.063 | [4] -0.007 | filanesib -0.023 | zotarolimus -0.03 | idasanutlin -0.14 | alisertib 0.013 | [5] 0.031 | gefitinib 0.083 | [6] 0.036 | lapatinib 0.037 | pictilisib 0.009

RECQL (UniProt P46063)
inactive: saracatinib 0.053 | sotrastaurin -0.012 | Tubastatin A 0.021 | [1] 0.061 | defactinib -0.071 | rucaparib -0.002 | [2] -0.013 | encorafenib 0.026 | [3] -0.026 | [4] 0.022 | filanesib -0.091 | zotarolimus 0.035 | idasanutlin -0.056 | alisertib -0.061 | [5] -0.038 | gefitinib -0.004 | [6] 0.031 | lapatinib 0.043 | pictilisib 0.024

RBM8A (UniProt Q9Y5S9)
inactive: saracatinib 0.011 | sotrastaurin -0.002 | Tubastatin A 0.045 | [1] -0.032 | defactinib 0.075 | rucaparib -0.043 | [2] -0.006 | encorafenib 0.025 | [3] 0.012 | [4] -0.061 | filanesib 0.028 | zotarolimus -0.018 | idasanutlin -0.01 | alisertib -0.024 | [5] 0.094 | gefitinib 0.038 | [6] -0.029 | lapatinib -0.028 | pictilisib -0.013

RHOA (UniProt P61586)
active: [4] 0.284
inactive: saracatinib 0.079 | sotrastaurin -0.025 | Tubastatin A -0.025 | [1] -0.029 | defactinib 0 | rucaparib 0.074 | [2] 0.012 | encorafenib -0.126 | [3] 0.08 | filanesib -0.012 | zotarolimus -0.054 | idasanutlin 0.1 | alisertib -0.085 | [5] -0.118 | gefitinib 0.036 | [6] -0.012 | lapatinib 0.036 | pictilisib -0.178

RDH13 (UniProt Q8NBN7)
inactive: saracatinib -0.084 | sotrastaurin 0.027 | Tubastatin A -0.063 | [1] -0.062 | defactinib -0.043 | rucaparib 0.029 | [2] 0.016 | encorafenib 0.014 | [3] -0.016 | [4] 0.056 | filanesib -0.135 | zotarolimus 0.072 | idasanutlin -0.019 | alisertib -0.005 | [5] -0.064 | gefitinib 0.018 | [6] 0.084 | lapatinib 0 | pictilisib 0.042

RNASET2 (UniProt O00584)
inactive: saracatinib 0.009 | sotrastaurin 0.01 | Tubastatin A 0.003 | [1] -0.031 | defactinib -0.004 | rucaparib -0.163 | [2] -0.067 | encorafenib 0.015 | [3] -0.002 | [4] 0.012 | filanesib -0.155 | zotarolimus -0.013 | idasanutlin -0.021 | alisertib -0.046 | [5] -0.097 | gefitinib -0.081 | [6] 0.035 | lapatinib -0.028 | pictilisib 0.024

RINT1 (UniProt Q6NUQ1)
inactive: saracatinib -0.248 | alvocidib 0.109 | Tubastatin A 0.236 | [1] 0.09 | defactinib -0.059 | rucaparib 0.246 | [2] 0.176 | encorafenib 0.27 | [3] -0.098 | [4] 0.106 | zotarolimus 0.13 | idasanutlin 0.214 | alisertib 0.056 | [5] 0.134 | gefitinib 0.084 | [6] -0.354 | lapatinib -0.016 | pictilisib 0.121

Fetched one by one from the list above (2):
RNASET2 (UniProt O00584)
inactive: saracatinib 0.009 | sotrastaurin 0.01 | Tubastatin A 0.003 | [1] -0.031 | defactinib -0.004 | rucaparib -0.163 | [2] -0.067 | encorafenib 0.015 | [3] -0.002 | [4] 0.012 | filanesib -0.155 | zotarolimus -0.013 | idasanutlin -0.021 | alisertib -0.046 | [5] -0.097 | gefitinib -0.081 | [6] 0.035 | lapatinib -0.028 | pictilisib 0.024

RBM8A (UniProt Q9Y5S9)
inactive: saracatinib 0.011 | sotrastaurin -0.002 | Tubastatin A 0.045 | [1] -0.032 | defactinib 0.075 | rucaparib -0.043 | [2] -0.006 | encorafenib 0.025 | [3] 0.012 | [4] -0.061 | filanesib 0.028 | zotarolimus -0.018 | idasanutlin -0.01 | alisertib -0.024 | [5] 0.094 | gefitinib 0.038 | [6] -0.029 | lapatinib -0.028 | pictilisib -0.013

The list goes on.

RBM39 (UniProt Q14498)
inactive: saracatinib -0.027 | sotrastaurin -0.089 | Tubastatin A 0.026 | [1] -0.303 | defactinib -0.16 | rucaparib 0.072 | [2] -0.183 | encorafenib 0.08 | [3] 0.011 | [4] 0.117 | filanesib 0.129 | zotarolimus -0.006 | idasanutlin 0.262 | alisertib -0.058 | [5] -0.055 | gefitinib -0.019 | [6] 0.009 | lapatinib 0.026 | pictilisib -0.014

RNF168 (UniProt Q8IYW5)
inactive: saracatinib -0.191 | sotrastaurin 0.041 | Tubastatin A 0.134 | [1] -0.015 | [2] 0.327 | filanesib -0.136 | idasanutlin -0.153 | alisertib 0.202 | [5] 0.004 | gefitinib 0.052 | [6] 0.166 | lapatinib 0.021

RBM6 (UniProt P78332)
inactive: saracatinib -0.032 | sotrastaurin -0.077 | Tubastatin A -0.077 | [2] 0.247 | [4] 0.044 | filanesib -0.067 | zotarolimus 0.064 | idasanutlin 0.101 | alisertib -0.431 | [5] -0.02 | gefitinib -0.007 | [6] 0.005 | lapatinib 0.121 | pictilisib -0.044

RCN3 (UniProt Q96D15)
inactive: saracatinib 0.033 | sotrastaurin 0.107 | Tubastatin A 0.153 | [1] -0.076 | defactinib 0.096 | rucaparib 0.038 | [2] -0.309 | encorafenib 0.054 | [3] 0.087 | [4] -0.065 | filanesib 0.054 | zotarolimus -0.068 | idasanutlin -0.122 | alisertib 0 | [5] 0.043 | gefitinib 0 | [6] 0.132 | lapatinib -0.025 | pictilisib 0.087

RBSN (UniProt Q9H1K0)
inactive: saracatinib -0.011 | sotrastaurin -0.183 | Tubastatin A 0.182 | [1] 0.001 | defactinib -0.041 | rucaparib -0.012 | [2] 0.129 | encorafenib 0.041 | [3] 0.054 | [4] -0.041 | filanesib -0.551 | idasanutlin -0.069 | [5] -0.167 | gefitinib -0.013 | lapatinib -0.063 | pictilisib -0.022

RGS10 (UniProt O43665)
inactive: saracatinib 0.033 | sotrastaurin -0.023 | Tubastatin A 0.049 | [1] 0.014 | defactinib -0.11 | rucaparib 0.038 | [2] 0 | encorafenib -0.001 | [3] -0.002 | [4] -0.023 | filanesib -0.081 | zotarolimus 0.115 | idasanutlin 0.086 | alisertib -0.053 | [5] 0.003 | gefitinib 0.056 | [6] -0.014 | lapatinib 0.029 | pictilisib -0.028

RFX7 (UniProt Q2KHR2)
inactive: saracatinib -0.005 | sotrastaurin -0.112 | [2] -0.048 | filanesib -0.001

REEP4 (UniProt Q9H6H4)
active: [5] -0.32
inactive: saracatinib 0.047 | sotrastaurin -0.068 | Tubastatin A 0.018 | [1] -0.122 | defactinib 0.008 | rucaparib 0.086 | [2] -0.014 | encorafenib -0.013 | [3] -0.01 | [4] -0.039 | filanesib -0.072 | zotarolimus -0.034 | idasanutlin 0.033 | alisertib -0.07 | gefitinib -0.032 | [6] -0.031 | lapatinib 0.121 | pictilisib -0.175

RIOK3 (UniProt O14730)
inactive: saracatinib 0.029 | sotrastaurin -0.006 | Tubastatin A 0.012 | [1] -0.029 | defactinib -0.01 | rucaparib -0.132 | [2] -0.039 | encorafenib -0.02 | [3] -0.002 | [4] -0.039 | filanesib -0.049 | zotarolimus -0.019 | idasanutlin 0.052 | alisertib -0.029 | [5] -0.009 | gefitinib 0.007 | [6] 0.01 | lapatinib 0.003 | pictilisib 0.095

RNF187 (UniProt Q5TA31)
inactive: saracatinib -0.069 | sotrastaurin 0.001 | Tubastatin A 0.196 | [1] -0.084 | defactinib -0.047 | rucaparib -0.139 | [2] 0.05 | encorafenib -0.042 | [3] -0.05 | [4] 0.028 | filanesib 0.003 | zotarolimus -0.006 | idasanutlin -0.032 | alisertib -0.104 | [5] 0.047 | gefitinib -0.012 | [6] -0.053 | lapatinib -0.07 | pictilisib -0.037

RETSAT (UniProt Q6NUM9)
inactive: saracatinib -0.088 | sotrastaurin 0.054 | Tubastatin A 0.185 | [1] 0.02 | defactinib -0.05 | rucaparib -0.001 | [2] -0.014 | encorafenib 0.012 | [3] -0.075 | [4] 0.051 | filanesib 0.109 | zotarolimus 0.094 | idasanutlin -0.077 | alisertib 0.067 | [5] 0.064 | gefitinib 0.052 | [6] -0.093 | lapatinib 0.192 | pictilisib 0.074

REX1BD (UniProt Q96EN9)
inactive: alvocidib -0.498 | zotarolimus -0.194

RIOX1 (UniProt Q9H6W3)
inactive: rucaparib 0.493 | encorafenib 0.157 | pictilisib -0.07
